Experimental data taken from paper PMC9123286 (The Journal of Cell Biology, 2022).

Biological target: T1, Get3 D57E-TEV-GFP (S. cerevisiae, UniProt Q12154 1-354, D57E)
T1 construct: Get3, cytosolic ATPase of the GET pathway, S. cerevisiae; ATPase-impaired client trap variant D57E; Captured on anti-GFP beads and eluted by TEV cleavage; the oligomeric state in the lysate was not measured; also called Get3 DE; Get3 D57E (DE); source: yeast (BY4741 background), ectopically expressed, in lysate made without detergent; not shown: TEV site-GFP, C-terminal, kept
T1 sequence (looked up): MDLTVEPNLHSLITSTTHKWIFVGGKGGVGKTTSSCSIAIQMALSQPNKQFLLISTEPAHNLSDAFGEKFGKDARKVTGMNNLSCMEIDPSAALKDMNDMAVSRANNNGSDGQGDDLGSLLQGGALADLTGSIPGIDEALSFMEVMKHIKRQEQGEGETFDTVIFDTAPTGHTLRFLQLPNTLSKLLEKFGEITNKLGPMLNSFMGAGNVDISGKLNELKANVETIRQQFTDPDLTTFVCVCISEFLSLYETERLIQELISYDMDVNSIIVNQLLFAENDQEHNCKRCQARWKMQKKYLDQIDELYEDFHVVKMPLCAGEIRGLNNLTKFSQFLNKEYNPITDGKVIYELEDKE
Assay: co-IP; lysates from Δget3 cells ectopically expressing Get3 DE-TEV-GFP and HA-tagged Erg1 full length, ΔC, Δα1 or Δα2; anti-GFP MicroBeads, no detergent, TEV elution; immunoblot, signal normalised to Get3 in the eluate and to the input

For “N-terminally HA-tagged Erg1 lacking the C-terminal membrane interacting region (ΔC) (S. cerevisiae) (domain or fragment)”, the binding was “no binding”.

No constants are given. Whether binding was seen depends on the method and setting. Binding seen in cells or lysates may run through a third protein. Where a sequence is shown, tags or fusion partners need not be part of it.
